Source: PubChem BioAssay AID1688 (National Center for Advancing Translational Sciences (NCATS), 2009)
The whole screen tested about 220,000 compounds, of which about 2,400 (1.1%) were called active. The shares of active, inactive and inconclusive entries below differ from those in the screen. The call rests on the fitted dose curve; in most records, active means well fitted inhibition curve with a large enough effect; inconclusive means small, poorly fitted or top-dose-only effect, or effect the other way; inactive means no such curve, though single readings can be large or run the other way. A potency beside an inconclusive call is a rough fit, not a confirmed value.

Assay: qHTS Multiplex Assay to Identify Dual Action Probes in a Cell Model of Huntington: Aggregate Formation (GFP); further: nearly all actives have a fitted effect of over 60% in size
Settings: PC12 HttQ103-GFP aggregates, Acumen cytometry, 40 h; activity change, negative = inhibition: at 46.1 µM (top of the series) unless noted
Summary of the method: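 Compounds (qHTS titration) were added to PC12 cells expressing an ecdysone-driven HTT exon 1 Q103–GFP fusion after induction with 100 nM tebufenozide. Aggregate formation was measured as GFP objects in cell lysates.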
On the % scale 0 is the no-effect control and ±100 the full control effect; potency means the concentration at half of the fitted maximal effect.

Row | SMILES | Potency | activity change, negative = inhibition
1 | CCCC(=O)Nc1nc(C)c(-c2csc(Nc3cc(OC)ccc3OC)n2)s1 | inconclusive: 12.6 µM [inhibitor, single point] | 
2 | CN1CCC(N(C)C(=O)/C=C/c2cn(-c3ccccc3)nc2-c2cccs2)CC1 | inconclusive: 35.5 µM [inhibitor, single point] | 
3 | O=C1Nc2ccccc2N=C(c2ccccc2)C1N1CCOCC1 (configuration not stated) | inactive | 
4 | Cc1nnc(N2CCOCC2)c2nn(-c3ccccc3)c(C)c12 | inconclusive: 35.5 µM [inhibitor, single point] | 
5 | CC(C)c1ccc(NC(=S)NC2CCCCCC2)cc1 | inconclusive: 17.8 µM [inhibitor, single point] | 
6 | Cc1csc(NC(=O)c2ccccc2O)n1 | inconclusive: 35.5 µM [inhibitor, single point] | 
7 | CC(=O)Nc1ccc(OCC(O)CN2CCN(c3ccc(C)c(Cl)c3)CC2)cc1 (configuration not stated) | inconclusive: 3.16 µM [inhibitor, single point] | 
8 | CC(Nc1c([N+](=O)[O-])c(=O)oc2ccccc12)C(Cl)c1ccccc1 (configuration not stated) | inconclusive: 10 µM [activator, partial curve, poor fit] | 
9 | CCC(C)(C)n1nnnc1CN(Cc1ccco1)Cc1cc2cc3c(cc2[nH]c1=O)OCO3 | inactive | 
10 | Cc1cc(S(=O)(=O)NCC(c2ccccc2)c2ccccc2)ccc1-n1cnnn1 | inconclusive: 17.8 µM [inhibitor, single point] | 
11 | CC(=O)c1ccc(N2CCN(C(=O)c3nn(Cc4ccccc4)c(=O)c4ccccc34)CC2)cc1 | inconclusive: 12.6 µM [inhibitor, single point] | 
12 | CCn1c(=O)c(C(=O)NCc2ccc(OC)cc2)c(O)c2ccccc21 | inconclusive: 35.5 µM [inhibitor, single point] | 
13 | O=C(CSCc1ccccc1Br)N/N=C/c1ccc(OCC(=O)N2CCCCC2)cc1 | inconclusive: 3.55 µM [inhibitor, single point] | 
14 | COc1ccc2sc3c(=O)[nH]c4ccccc4c3c2c1 | inconclusive: 3.16 µM [inhibitor, full curve] | 
15 | Cc1ccc(Nc2c(-c3ccccn3)nc3cc(C)ccn23)cc1 | active: 7.94 µM | 
16 | COc1cccc(NC(=S)NC2CC3CCCC(C2)N3CC(C)C)c1 (configuration not stated) |  | inactive: -6.89% [at 9.22 µM]
17 | COC(=O)c1cc(NC(=O)Cn2c(=O)cnc3ccccc32)cc(C(=O)OC)c1 | inactive | 
18 | O=c1c2c(nc3c(-c4ccccc4)c[nH]n13)CCCC2 | inconclusive: 11.2 µM [inhibitor, partial curve] | 
19 | CCOc1ccc(/C=C/C2=Cc3c(sc(NC(=O)CSc4n[nH]c(N)n4)c3C#N)C(C)(C)C2)cc1 | inconclusive: 5.01 µM [activator, partial curve] | 
20 | CC(C)Sc1nsc2nc(=O)c(/C=C3\C=Nc4ccccc43)c(N)n12 | inactive | 
21 | Cc1ccc(/C([O-])=C(/C(=S)NCc2ccc3c(c2)OCO3)[n+]2ccc(N(C)C)cc2)c(C)c1 | inconclusive: 3.16 µM [inhibitor, single point] | 

Row | SMILES | Potency | activity change, negative = inhibition
22 | COCC(C)NC(=O)c1cccc(Cl)c1 (configuration not stated) | inactive | 
23 | CCCCN(CCCC)c1ncnc2nc[nH]c12 | inconclusive: 25.1 µM [inhibitor, single point] | 
24 | CC(C)Cn1c(SCC(=O)NC(=O)Nc2ccc3c(c2)OCCO3)nc2ccccc2c1=O | inconclusive: 1.26 µM [inhibitor, single point] | 
25 | COc1ccc(N2CCN(C(=O)Cn3c(=O)[nH]c4ccsc4c3=O)CC2)cc1 | inconclusive: 35.5 µM [inhibitor, single point] | 
26 | COc1ccc(NC(=S)NC(NC(=O)c2ccc(Cl)cc2Cl)C(Cl)(Cl)Cl)c([N+](=O)[O-])c1 (configuration not stated) | inconclusive: 15.8 µM [inhibitor, single point] | 
27 | O=C(Nc1cccc(F)c1)c1ccc(Br)o1 | inconclusive: 14.1 µM [inhibitor, single point] | 
28 | C=CCn1c(COc2cccc3cccnc23)nnc1SCC(=O)OC | inconclusive: 0.0891 µM [inhibitor, full curve, poor fit] | 
29 | CCOC(=O)c1c(C)[nH]c(C(=O)CN2CC(C)OC(C)C2)c1C (configuration not stated) | inactive | 
30 | Cc1cc(NCc2ccccc2)nc(-c2ccccc2O)n1 | inconclusive: 35.5 µM [inhibitor, single point] | 
31 | CN(C)S(=O)(=O)c1ccc(N2CCCC2=O)c([N+](=O)[O-])c1 | inconclusive: 3.55 µM [activator, single point] | 
32 | NC(=S)Nc1cccc2cc3ccccc3cc12 | inactive | 
33 | C[C@@H](C(=O)NCCc1c[nH]c2ccccc12)[C@H]1C[C@]1(C)[C@H](NC(=O)OCc1ccccc1)c1ccccc1 | inconclusive: 35.5 µM [inhibitor, single point] | 
34 | CCCCc1ccc(C2C3=C(CC(C)(C)CC3=O)NC3=C2C(=O)c2ccccc23)cc1 (configuration not stated) | inconclusive: 4.47 µM [inhibitor, partial curve] | 
35 | CC(=O)[C@H]1CC[C@H]2C3CC=C4C[C@@H](O)CC[C@]4(C)C3CC[C@]12C (some centres not stated) | inactive | 
36 | CC(C)(C)c1ccc(S(=O)(=O)NCCc2ccncc2)cc1 | active: 22.4 µM | 
37 | Cc1ccc(OCCCCn2ccnc2)c(Cl)c1 | inconclusive: 35.5 µM [inhibitor, single point] | 
38 | COc1cc2c(cc1OC)C(c1ccccc1)CC2=O (configuration not stated) |  | inactive: -15.4% [at 9.22 µM]
39 | COc1cc2c(cc1OC)C(C)N(C(=O)c1cc3n(n1)C(C(F)(F)F)CC(c1ccco1)N3)CC2 (configuration not stated) | inconclusive: 35.5 µM [inhibitor, single point] | 
40 | Cc1onc(-c2ccccc2)c1C(=O)NC(=S)NNC(=O)c1ccccc1O | inconclusive: 7.94 µM [inhibitor, partial curve] | 
41 | Cc1nc(NC(=O)c2ccccc2)sc1-c1csc(Nc2ccc(F)cc2)n1 | inconclusive: 2.24 µM [inhibitor, full curve] | 
42 | CCOCCCn1cc(C(=O)c2cc(Br)ccc2O)cc(C#N)c1=O | inconclusive: 6.31 µM [inhibitor, full curve, poor fit] | 

Among those listed so far, three contain bromine.
Row | SMILES | Potency | activity change, negative = inhibition
13 | O=C(CSCc1ccccc1Br)N/N=C/c1ccc(OCC(=O)N2CCCCC2)cc1 | inconclusive: 3.55 µM [inhibitor, single point] | 
27 | O=C(Nc1cccc(F)c1)c1ccc(Br)o1 | inconclusive: 14.1 µM [inhibitor, single point] | 
42 | CCOCCCn1cc(C(=O)c2cc(Br)ccc2O)cc(C#N)c1=O | inconclusive: 6.31 µM [inhibitor, full curve, poor fit] | 
